The target of this experiment is cyclin-dependent kinase 8 (CDK8) (human (endogenous in D458)) (UniProt P49336). The experiment in a line: co-IP.

Chains of the proteins cited; added tags and fusions are not shown.
UniProt P49336: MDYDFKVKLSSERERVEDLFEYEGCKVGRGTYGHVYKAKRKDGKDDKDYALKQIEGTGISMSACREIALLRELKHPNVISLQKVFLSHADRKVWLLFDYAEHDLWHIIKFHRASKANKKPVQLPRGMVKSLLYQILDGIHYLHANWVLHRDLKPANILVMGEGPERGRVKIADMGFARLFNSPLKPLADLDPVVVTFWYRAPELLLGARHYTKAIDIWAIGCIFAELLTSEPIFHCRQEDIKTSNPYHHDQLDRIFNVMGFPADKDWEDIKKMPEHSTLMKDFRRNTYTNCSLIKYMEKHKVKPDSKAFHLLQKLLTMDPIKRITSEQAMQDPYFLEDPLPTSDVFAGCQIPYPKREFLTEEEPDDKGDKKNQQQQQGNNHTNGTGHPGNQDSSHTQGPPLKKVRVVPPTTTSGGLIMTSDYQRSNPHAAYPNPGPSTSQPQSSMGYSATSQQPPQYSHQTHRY
UniProt Q13541: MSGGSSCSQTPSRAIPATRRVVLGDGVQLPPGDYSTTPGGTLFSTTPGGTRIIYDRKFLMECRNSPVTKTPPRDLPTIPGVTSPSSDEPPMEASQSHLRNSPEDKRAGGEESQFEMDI

No constants are given. Whether binding was seen depends on the method and setting. In cells and extracts the contact can be indirect. Some entries that bind do so weakly or less than the wild type.

“phospho-4EBP1 (T37/46) (from UniProt Q13541 1-118)”: the binding entry is given as “binds”.

The values above are taken from paper doi:10.1101/2024.03.08.584103.
